The results in this text go back to the supplement of paper PMC8728848.

Some of the results follow.

Common to all, as to experiment: glycan array binding signal (z-score within array); higher = stronger binding
Common to all, as to settings: glycan notation: IUPAC condensed, linker removed

One experiment concerns the target Glc(b1-6)Glc. In a few lines:
(§1)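 Glycan array data were curated from 3228 arrays in the Consortium for Functional Glycomics database and kept only where the protein sequence was available. Glycan names were converted to IUPAC-condensed notation, and columns mapping to the same glycan were averaged. The binding signal is a within-array Z-score, averaged across arrays of the same protein sequence at different concentrations or buffers and across linkers. Negative Z-scores can be read as non-binding.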

Another experiment concerns the target GlcA(b1-3)Gal. The procedure, abridged:
as §1

The target in another experiment is GlcA(b1-3)GlcNAc. The procedure, abridged: as §1
The target in a further experiment is GlcA(b1-6)Gal. In a few lines:
as §1

Experiment [1] concerns the target GlcA3S(b1-3)Gal(b1-4)GlcNAc(b1-2)Man. In a few lines:
as §1

Experiment [2] concerns the target GlcA3S(b1-3)Gal(b1-4)GlcNAc(b1-3)Gal(b1-4)Glc. The procedure, abridged: as §1
Experiment [3] addresses GlcNAc(a1-3)Gal(b1-4)GlcNAc. In a few lines: as §1
Experiment [4] concerns the target GlcNAc(a1-4)Gal(b1-3)GlcNAc. The procedure, abridged: as §1
Experiment [5] deals with GlcNAc(a1-4)Gal(b1-4)GalNAc. The procedure, abridged:
as §1

In experiment [6] the target is GlcNAc(a1-4)Gal(b1-4)GlcNAc. In a few lines:
as §1

Experiment [7] deals with GlcNAc(a1-4)Gal(b1-4)GlcNAc(b1-3)Gal(b1-4)Glc. The procedure, abridged:
as §1

The target of experiment [8] is GlcNAc(a1-4)Gal(b1-4)GlcNAc(b1-3)Gal(b1-4)GlcNAc. The procedure, abridged:
as §1

In experiment [9] the target is GlcNAc(a1-4)Gal(b1-4)GlcNAc(b1-3)Gal(b1-4)GlcNAc(b1-3)Gal(b1-4)GlcNAc. In a few lines:
as §1

Experiment [10] concerns the target GlcNAc(a1-4)Gal(b1-4)GlcNAc(b1-3)Gal(b1-4)[Fuc(a1-3)]GlcNAc(b1-3)Gal(b1-4)[Fuc(a1-3)]GlcNAc. The procedure, abridged: as §1
Experiment [11] deals with GlcNAc(a1-6)Gal(b1-4)GlcNAc. In a few lines:
as §1

Experiment [12] concerns the target GlcNAc(b1-2)Gal(b1-3)GalNAc. The procedure, abridged:
as §1

Experiment [13] deals with GlcNAc(b1-2)Man(a1-3)[GlcNAc(b1-2)Man(a1-6)]Man(b1-4)GlcNAc(b1-4)GlcNAc. The procedure, abridged: as §1
Experiment [14] addresses GlcNAc(b1-2)Man(a1-3)[GlcNAc(b1-2)Man(a1-6)]Man(b1-4)GlcNAc(b1-4)[Fuc(a1-6)]GlcNAc. In a few lines: as §1
In experiment [15] the target is GlcNAc(b1-2)Man(a1-3)[GlcNAc(b1-4)][GlcNAc(b1-2)Man(a1-6)]Man(b1-4)GlcNAc(b1-4)GlcNAc. In a few lines: as §1
The target in experiment [16] is GlcNAc(b1-2)Man(a1-3)[GlcNAc(b1-4)][GlcNAc(b1-2)Man(a1-6)]Man(b1-4)GlcNAc(b1-4)[Fuc(a1-6)]GlcNAc. The procedure, abridged:
as §1

Experiment [17] has as its target GlcNAc(b1-2)[GlcNAc(b1-4)]Man(a1-3)[GlcNAc(b1-2)Man(a1-6)]Man(b1-4)GlcNAc(b1-4)GlcNAc. The procedure, abridged: as §1
Experiment [18] addresses GlcNAc(b1-2)[GlcNAc(b1-4)]Man(a1-3)[GlcNAc(b1-4)][GlcNAc(b1-2)Man(a1-6)]Man(b1-4)GlcNAc(b1-4)GlcNAc. In a few lines:
as §1

B1: Pwp1 (Candida glabrata) (protein)
chain: MGSSHHHHHHSSGLVPRGSHMASANPISITNVCQFPDNWARTAGFQATTVRLGLTIASNTYKELLNYPGLFNFATQKATVTQPNFSISGFPFFTGLYGLTVWPINLLVELQGYFVPPESGNYTFTLQGSDDAAILFFANPSTFACGSQNDWPQPREADITVTDTLVPSRTLYLVKGVAYPIRIAYYNGSGDGKLNVSFKDPSGTTHTDWKGYVWQYSNTCSTCTYT
As to B1, the “glycan array binding signal (z-score)” value in the experiment with Glc(b1-6)Glc is 0.88; in the experiment with GlcA(b1-3)Gal, 0.22; with GlcA(b1-3)GlcNAc it was -1.31; in the experiment with GlcA(b1-6)Gal, -0.201; in experiment [1] it was 0.682; in experiment [2], -0.393. Besides, the “glycan array binding signal (z-score)” value in experiment [3] was 0.126; in experiment [4] it was -0.206; in [5], -1.74; in experiment [6] it was 0.326; in [7], 1.72; in [8], -0.537. Moreover, the “glycan array binding signal (z-score)” value came to 0.377 in experiment [9]; 1.32 in [10]; 0.058 in [11]; 0.745 in [12]; 0.258 in [13]; 0.012 in experiment [14]. Further, the “glycan array binding signal (z-score)” value in [15] is 0.347; in experiment [16], 0.685; in [17], 0.374; in [18], 1.03.
